Test results reported in the supplement of paper PMC5836539.
± gives the standard deviation of the averaged measurements. Most values lie within the scatter of the assay; repeated measurements hardly agree.

Sequences of proteins named here, by UniProt entry; tags and fusion partners are left off. A change or cut given only in a name is not applied to a line headed by its entry.
UniProt Q86X95: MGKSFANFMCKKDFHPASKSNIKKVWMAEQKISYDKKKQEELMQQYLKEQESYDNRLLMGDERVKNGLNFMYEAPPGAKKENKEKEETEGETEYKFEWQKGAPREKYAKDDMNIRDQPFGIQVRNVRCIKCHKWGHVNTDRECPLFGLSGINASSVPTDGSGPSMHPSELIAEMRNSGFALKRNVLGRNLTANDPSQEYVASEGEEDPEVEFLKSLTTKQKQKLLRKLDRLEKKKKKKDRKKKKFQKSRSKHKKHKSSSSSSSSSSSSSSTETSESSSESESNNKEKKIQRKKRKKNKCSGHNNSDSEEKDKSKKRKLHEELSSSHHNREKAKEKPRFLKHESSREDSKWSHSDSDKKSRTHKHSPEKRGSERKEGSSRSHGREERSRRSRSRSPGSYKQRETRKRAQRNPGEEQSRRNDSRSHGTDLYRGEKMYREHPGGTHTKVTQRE
UniProt Q86YS7: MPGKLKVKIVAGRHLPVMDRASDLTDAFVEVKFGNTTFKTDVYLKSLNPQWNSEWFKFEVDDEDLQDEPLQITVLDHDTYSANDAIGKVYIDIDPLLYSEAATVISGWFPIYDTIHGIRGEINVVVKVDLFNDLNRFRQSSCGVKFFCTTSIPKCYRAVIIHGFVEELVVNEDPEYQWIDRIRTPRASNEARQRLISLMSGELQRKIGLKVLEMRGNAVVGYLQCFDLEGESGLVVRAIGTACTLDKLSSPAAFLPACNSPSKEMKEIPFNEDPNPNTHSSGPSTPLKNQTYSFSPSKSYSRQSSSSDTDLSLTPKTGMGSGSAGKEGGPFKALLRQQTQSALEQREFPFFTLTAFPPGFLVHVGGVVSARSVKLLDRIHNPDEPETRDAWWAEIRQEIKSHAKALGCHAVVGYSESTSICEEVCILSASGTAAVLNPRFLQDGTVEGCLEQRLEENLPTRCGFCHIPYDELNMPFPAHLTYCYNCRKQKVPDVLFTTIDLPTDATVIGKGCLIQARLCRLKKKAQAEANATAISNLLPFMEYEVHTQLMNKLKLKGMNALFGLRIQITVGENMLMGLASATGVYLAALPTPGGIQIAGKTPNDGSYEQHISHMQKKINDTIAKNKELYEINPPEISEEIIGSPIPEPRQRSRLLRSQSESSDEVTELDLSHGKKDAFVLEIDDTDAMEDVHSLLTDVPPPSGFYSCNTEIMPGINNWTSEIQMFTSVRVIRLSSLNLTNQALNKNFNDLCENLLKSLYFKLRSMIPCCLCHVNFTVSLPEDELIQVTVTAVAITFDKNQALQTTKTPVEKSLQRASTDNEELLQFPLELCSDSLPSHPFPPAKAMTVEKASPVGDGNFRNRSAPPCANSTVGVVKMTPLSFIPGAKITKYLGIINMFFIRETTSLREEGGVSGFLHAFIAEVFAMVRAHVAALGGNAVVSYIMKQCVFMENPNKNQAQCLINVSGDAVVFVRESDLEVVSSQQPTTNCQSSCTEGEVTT
UniProt Q96B97, whole entry, looked up: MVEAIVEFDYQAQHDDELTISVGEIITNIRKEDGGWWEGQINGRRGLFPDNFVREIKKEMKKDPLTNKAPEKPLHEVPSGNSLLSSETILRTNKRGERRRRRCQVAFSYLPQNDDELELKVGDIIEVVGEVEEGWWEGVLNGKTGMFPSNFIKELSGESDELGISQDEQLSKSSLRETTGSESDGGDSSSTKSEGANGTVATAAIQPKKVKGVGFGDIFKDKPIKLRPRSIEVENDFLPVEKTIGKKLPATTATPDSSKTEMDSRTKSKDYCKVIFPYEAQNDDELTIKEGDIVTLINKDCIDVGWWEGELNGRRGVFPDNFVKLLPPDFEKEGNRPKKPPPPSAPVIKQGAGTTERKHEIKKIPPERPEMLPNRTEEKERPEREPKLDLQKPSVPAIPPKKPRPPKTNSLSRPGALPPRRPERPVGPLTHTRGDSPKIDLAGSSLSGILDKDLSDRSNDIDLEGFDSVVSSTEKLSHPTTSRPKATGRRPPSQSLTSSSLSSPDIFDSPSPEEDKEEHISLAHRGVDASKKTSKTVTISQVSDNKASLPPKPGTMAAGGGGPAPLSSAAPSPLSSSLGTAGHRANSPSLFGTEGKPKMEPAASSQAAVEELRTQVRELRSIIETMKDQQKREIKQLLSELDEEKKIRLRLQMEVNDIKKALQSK
UniProt Q96EZ8, whole entry, looked up: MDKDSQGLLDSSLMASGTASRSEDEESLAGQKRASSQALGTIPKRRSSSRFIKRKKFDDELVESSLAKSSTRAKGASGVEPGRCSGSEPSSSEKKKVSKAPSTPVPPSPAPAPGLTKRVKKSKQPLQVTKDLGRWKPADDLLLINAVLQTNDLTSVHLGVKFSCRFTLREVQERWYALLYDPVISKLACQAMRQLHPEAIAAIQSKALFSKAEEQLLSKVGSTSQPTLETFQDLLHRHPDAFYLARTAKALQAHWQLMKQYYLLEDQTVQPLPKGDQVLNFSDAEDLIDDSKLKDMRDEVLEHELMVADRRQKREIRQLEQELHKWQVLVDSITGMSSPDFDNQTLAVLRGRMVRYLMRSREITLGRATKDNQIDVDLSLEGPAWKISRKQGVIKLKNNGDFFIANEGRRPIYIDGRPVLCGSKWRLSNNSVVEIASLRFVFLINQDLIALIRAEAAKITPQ
UniProt Q96JG6: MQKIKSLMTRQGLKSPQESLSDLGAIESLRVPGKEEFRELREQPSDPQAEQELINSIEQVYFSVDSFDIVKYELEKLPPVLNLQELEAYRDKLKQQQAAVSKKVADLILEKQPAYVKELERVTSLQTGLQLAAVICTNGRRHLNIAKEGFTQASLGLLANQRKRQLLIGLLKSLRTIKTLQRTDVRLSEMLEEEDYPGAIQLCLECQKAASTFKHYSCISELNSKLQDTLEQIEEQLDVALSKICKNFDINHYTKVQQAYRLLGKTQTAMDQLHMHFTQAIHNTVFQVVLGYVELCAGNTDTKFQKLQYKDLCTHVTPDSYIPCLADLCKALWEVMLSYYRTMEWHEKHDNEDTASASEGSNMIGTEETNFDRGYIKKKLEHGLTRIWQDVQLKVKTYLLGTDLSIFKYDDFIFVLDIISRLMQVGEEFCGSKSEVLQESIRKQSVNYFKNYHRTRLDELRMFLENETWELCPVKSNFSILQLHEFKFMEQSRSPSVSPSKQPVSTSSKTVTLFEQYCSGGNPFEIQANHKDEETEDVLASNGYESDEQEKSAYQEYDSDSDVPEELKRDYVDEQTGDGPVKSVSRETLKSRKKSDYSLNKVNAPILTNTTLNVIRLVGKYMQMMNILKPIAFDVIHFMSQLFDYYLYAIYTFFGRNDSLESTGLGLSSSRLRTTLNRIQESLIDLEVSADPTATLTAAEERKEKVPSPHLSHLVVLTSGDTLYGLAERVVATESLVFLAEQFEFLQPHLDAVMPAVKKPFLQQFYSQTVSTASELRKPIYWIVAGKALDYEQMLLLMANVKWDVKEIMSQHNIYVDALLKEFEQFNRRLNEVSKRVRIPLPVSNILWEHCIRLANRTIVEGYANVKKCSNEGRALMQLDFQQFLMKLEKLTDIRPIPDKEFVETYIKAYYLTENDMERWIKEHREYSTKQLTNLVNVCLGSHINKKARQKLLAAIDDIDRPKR
UniProt Q96JM3: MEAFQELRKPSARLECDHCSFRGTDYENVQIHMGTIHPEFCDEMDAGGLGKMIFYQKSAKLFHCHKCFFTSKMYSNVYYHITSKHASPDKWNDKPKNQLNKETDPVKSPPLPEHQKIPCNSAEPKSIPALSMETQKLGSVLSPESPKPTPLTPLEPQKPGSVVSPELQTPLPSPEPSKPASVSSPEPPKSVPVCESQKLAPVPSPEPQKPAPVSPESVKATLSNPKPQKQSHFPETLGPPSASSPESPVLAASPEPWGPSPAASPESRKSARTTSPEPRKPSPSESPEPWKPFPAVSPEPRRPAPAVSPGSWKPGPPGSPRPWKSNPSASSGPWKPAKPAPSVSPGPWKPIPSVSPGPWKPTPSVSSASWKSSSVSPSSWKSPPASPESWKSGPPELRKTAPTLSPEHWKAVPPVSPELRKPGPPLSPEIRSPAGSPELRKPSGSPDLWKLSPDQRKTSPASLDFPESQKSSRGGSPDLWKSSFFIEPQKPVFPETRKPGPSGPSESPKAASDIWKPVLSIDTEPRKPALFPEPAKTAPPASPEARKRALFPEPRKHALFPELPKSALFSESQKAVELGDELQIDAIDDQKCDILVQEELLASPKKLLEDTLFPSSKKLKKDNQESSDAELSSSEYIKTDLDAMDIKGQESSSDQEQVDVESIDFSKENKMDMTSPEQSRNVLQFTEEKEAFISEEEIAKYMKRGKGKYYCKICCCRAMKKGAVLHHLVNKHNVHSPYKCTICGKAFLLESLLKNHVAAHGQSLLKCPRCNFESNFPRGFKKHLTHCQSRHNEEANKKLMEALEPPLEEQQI
UniProt Q96SB4, whole entry, looked up: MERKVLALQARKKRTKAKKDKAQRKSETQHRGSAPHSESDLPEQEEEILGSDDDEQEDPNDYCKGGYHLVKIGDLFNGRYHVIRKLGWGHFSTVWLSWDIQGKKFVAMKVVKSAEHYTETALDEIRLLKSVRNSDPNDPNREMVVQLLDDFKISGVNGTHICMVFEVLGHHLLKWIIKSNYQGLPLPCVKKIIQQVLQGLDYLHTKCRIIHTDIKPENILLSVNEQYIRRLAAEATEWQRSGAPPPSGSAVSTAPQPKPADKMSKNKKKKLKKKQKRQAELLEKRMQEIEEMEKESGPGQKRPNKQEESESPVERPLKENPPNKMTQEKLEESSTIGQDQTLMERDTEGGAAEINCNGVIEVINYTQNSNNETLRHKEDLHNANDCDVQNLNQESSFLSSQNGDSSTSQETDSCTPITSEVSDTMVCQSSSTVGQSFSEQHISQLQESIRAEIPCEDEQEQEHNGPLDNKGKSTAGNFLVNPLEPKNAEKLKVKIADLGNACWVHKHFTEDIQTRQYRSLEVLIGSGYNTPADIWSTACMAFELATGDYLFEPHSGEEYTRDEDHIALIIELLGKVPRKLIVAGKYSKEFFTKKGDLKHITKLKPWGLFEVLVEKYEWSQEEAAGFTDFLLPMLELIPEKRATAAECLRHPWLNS
UniProt Q641Q2, whole entry, looked up: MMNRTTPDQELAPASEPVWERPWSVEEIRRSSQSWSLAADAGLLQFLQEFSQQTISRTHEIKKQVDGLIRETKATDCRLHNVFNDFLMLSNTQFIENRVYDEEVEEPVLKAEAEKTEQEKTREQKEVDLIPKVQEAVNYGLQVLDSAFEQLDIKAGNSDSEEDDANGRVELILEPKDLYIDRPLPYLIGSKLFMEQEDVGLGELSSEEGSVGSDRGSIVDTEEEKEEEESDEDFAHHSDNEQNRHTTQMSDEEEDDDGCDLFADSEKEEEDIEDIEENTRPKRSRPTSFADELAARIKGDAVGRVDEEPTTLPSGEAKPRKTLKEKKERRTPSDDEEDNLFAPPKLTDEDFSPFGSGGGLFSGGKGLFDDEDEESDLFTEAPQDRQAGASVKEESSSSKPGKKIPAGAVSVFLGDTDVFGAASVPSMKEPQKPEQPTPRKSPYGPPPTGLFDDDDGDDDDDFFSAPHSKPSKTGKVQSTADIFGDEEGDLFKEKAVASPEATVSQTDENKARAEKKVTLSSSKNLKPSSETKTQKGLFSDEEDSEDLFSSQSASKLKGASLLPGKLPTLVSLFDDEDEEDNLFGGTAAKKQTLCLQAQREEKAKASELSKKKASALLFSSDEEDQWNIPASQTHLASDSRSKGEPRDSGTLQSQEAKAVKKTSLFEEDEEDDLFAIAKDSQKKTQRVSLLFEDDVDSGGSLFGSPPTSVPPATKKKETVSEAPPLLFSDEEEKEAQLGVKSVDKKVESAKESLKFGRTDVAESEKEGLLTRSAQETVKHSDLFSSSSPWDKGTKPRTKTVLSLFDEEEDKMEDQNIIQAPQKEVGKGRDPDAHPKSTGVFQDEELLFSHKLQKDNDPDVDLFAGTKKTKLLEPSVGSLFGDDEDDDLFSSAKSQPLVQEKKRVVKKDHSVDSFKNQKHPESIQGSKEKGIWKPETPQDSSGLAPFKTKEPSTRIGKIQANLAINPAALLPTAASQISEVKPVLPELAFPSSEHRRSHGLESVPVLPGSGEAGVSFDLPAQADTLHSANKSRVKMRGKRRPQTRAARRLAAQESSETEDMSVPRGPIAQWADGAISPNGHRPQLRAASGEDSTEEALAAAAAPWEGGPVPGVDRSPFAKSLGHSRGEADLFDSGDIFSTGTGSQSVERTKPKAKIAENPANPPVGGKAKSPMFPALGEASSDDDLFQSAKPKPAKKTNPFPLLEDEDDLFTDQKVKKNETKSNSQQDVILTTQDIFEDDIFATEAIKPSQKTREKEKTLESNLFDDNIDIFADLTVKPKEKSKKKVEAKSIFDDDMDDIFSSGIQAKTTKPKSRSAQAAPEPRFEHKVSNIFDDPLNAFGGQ

The targets below were run with CC[C@@H](C)Nc1cc(C(=O)N[C@H]2C[C@H]3CC[C@@H](C2)N3c2ccc(C(=O)C3CC3)cn2)c(C)cc1C(N)=O [XL888] (assay: phosphopeptide melting temperature shift (XL888 minus DMSO); higher = stabilised by drug treatment). Conditions: 100 µM; treatment time 2 h; layout: intact cells; SK-Mel 28.
Experimental: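 Phospho-TPP in intact SK-Mel 28 cells treated with 100 uM XL888 or DMSO for 2 h, heated at 10 temperatures (37-67 C) for 3 min, soluble fraction TMT10plex-labelled and TiO2 phospho-enriched. Melting curves were fitted per phosphopeptide; the value is the melting point difference (drug minus vehicle) in each of two biological replicates.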
For “UniProt Q86X95_phosphosite_202 (phosphosite position: 202)”, the “phosphopeptide melting temperature shift” value was -0.464 ± 1.4 °C. For “UniProt Q86YP4-2_phosphosite_100 (phosphosite position: 100)”, the “phosphopeptide melting temperature shift” value was 1.45 °C. “UniProt Q86YP4-2_phosphosite_107 (phosphosite position: 107)” was tested, and the “phosphopeptide melting temperature shift” value was 1.05 °C. For “UniProt Q86YS7_phosphosite_280 (phosphosite position: 280)”, the “phosphopeptide melting temperature shift” value was 0.223 ± 0.13 °C. With “UniProt Q86YS7_phosphosite_281 (phosphosite position: 281)” the “phosphopeptide melting temperature shift” value was 0.61 ± 0.31 °C. With “UniProt Q86YS7_phosphosite_284 (phosphosite position: 284)” the “phosphopeptide melting temperature shift” value was 0.886 ± 0.69 °C. For “UniProt Q86YS7_phosphosite_285 (phosphosite position: 285)”, the “phosphopeptide melting temperature shift” value was -0.0189 ± 0.59 °C. With “UniProt Q86YS7_phosphosite_659 (phosphosite position: 659)” the “phosphopeptide melting temperature shift” value was -0.132 °C. With “UniProt Q86YS7_phosphosite_661 (phosphosite position: 661)” the “phosphopeptide melting temperature shift” value was 0.549 °C. “UniProt Q86YS7_phosphosite_662 (phosphosite position: 662)” was tested, and the “phosphopeptide melting temperature shift” value was -0.15 °C. With “UniProt Q96B23-2_phosphosite_69 (phosphosite position: 69)” the “phosphopeptide melting temperature shift” value was 0.598 °C. “UniProt Q96B97-2_phosphosite_193 (phosphosite position: 193)” was tested, and the “phosphopeptide melting temperature shift” value was -0.075 ± 1.2 °C. For “UniProt Q96B97-2_phosphosite_472 (phosphosite position: 472)”, the “phosphopeptide melting temperature shift” value was -0.0312 ± 2 °C. In the case of “UniProt Q96B97-2_phosphosite_474 (phosphosite position: 474)”, the “phosphopeptide melting temperature shift” value is reported as 0.219 ± 0.3 °C. In the case of “UniProt Q96BR1-2_phosphosite_126 (phosphosite position: 126)”, the “phosphopeptide melting temperature shift” value is reported as 0.335 ± 0.36 °C. For “UniProt Q96BY6-3_phosphosite_1251 (phosphosite position: 1251)”, the “phosphopeptide melting temperature shift” value was 0.0629 °C. With “UniProt Q96D71-3_phosphosite_708 (phosphosite position: 708)” the “phosphopeptide melting temperature shift” value was 0.93 ± 0.7 °C. “UniProt Q96EZ8-4_phosphosite_91 (phosphosite position: 91)” was tested, and the “phosphopeptide melting temperature shift” value was 4.87 °C. In the case of “UniProt Q96F24-3_phosphosite_103 (phosphosite position: 103)”, the “phosphopeptide melting temperature shift” value is reported as 6.57 °C. For “UniProt Q96F45-3_phosphosite_102 (phosphosite position: 102)”, the “phosphopeptide melting temperature shift” value was 3.38 ± 1.2 °C. With “UniProt Q96FT9-3_phosphosite_78 (phosphosite position: 78)” the “phosphopeptide melting temperature shift” value was 4.62 °C. In the case of “UniProt Q96G74-2_phosphosite_40 (phosphosite position: 40)”, the “phosphopeptide melting temperature shift” value is reported as -0.204 °C. “UniProt Q96G74-2_phosphosite_479 (phosphosite position: 479)” was tested, and the “phosphopeptide melting temperature shift” value was 2.32 °C. With “UniProt Q96GP6-2_phosphosite_648 (phosphosite position: 648)” the “phosphopeptide melting temperature shift” value was 0.486 °C. With “UniProt Q96HR8-2_phosphosite_315 (phosphosite position: 315)” the “phosphopeptide melting temperature shift” value was -0.485 ± 1.4 °C. For “UniProt Q96JG6_phosphosite_561 (phosphosite position: 561)”, the “phosphopeptide melting temperature shift” value was 0.344 ± 0.39 °C. For “UniProt Q96JM3_phosphosite_204 (phosphosite position: 204)”, the “phosphopeptide melting temperature shift” value was 5.13 ± 0.16 °C. With “UniProt Q96JM3_phosphosite_214 (phosphosite position: 214)” the “phosphopeptide melting temperature shift” value was 5.13 ± 0.16 °C. With “UniProt Q96JM3_phosphosite_445 (phosphosite position: 445)” the “phosphopeptide melting temperature shift” value was 3.91 °C. “UniProt Q96JM3_phosphosite_452 (phosphosite position: 452)” was tested, and the “phosphopeptide melting temperature shift” value was 3.91 °C. For “UniProt Q96JM3_phosphosite_476 (phosphosite position: 476)”, the “phosphopeptide melting temperature shift” value was 1.98 ± 0.71 °C. With “UniProt Q96K76-2_phosphosite_744 (phosphosite position: 744)” the “phosphopeptide melting temperature shift” value was 3.2 °C. “UniProt Q96MU7-2_phosphosite_308 (phosphosite position: 308)” was tested, and the “phosphopeptide melting temperature shift” value was 1.73 °C. For “UniProt Q96MU7-2_phosphosite_406 (phosphosite position: 406)”, the “phosphopeptide melting temperature shift” value was -1.69 °C. In the case of “UniProt Q96N67-2_phosphosite_180 (phosphosite position: 180)”, the “phosphopeptide melting temperature shift” value is reported as 5.38 °C. In the case of “UniProt Q96N67-2_phosphosite_439 (phosphosite position: 439)”, the “phosphopeptide melting temperature shift” value is reported as 5.5096 ± 1e-05 °C. “UniProt Q96N67-2_phosphosite_452 (phosphosite position: 452)” was tested, and the “phosphopeptide melting temperature shift” value was 1.95 °C. In the case of “UniProt Q96N67-2_phosphosite_900 (phosphosite position: 900)”, the “phosphopeptide melting temperature shift” value is reported as 2.71 °C. “UniProt Q96N67-2_phosphosite_946 (phosphosite position: 946)” was tested, and the “phosphopeptide melting temperature shift” value was 1.39 °C. “UniProt Q96N67-2_phosphosite_1423 (phosphosite position: 1423)” was tested, and the “phosphopeptide melting temperature shift” value was -2.0888 ± 5.8e-06 °C. With “UniProt Q96NE9-3_phosphosite_186 (phosphosite position: 186)” the “phosphopeptide melting temperature shift” value was 0.745 °C. “UniProt Q96P16-3_phosphosite_120 (phosphosite position: 120)” was tested, and the “phosphopeptide melting temperature shift” value was 3.95 °C. With “UniProt Q96QB1-4_phosphosite_12 (phosphosite position: 12)” the “phosphopeptide melting temperature shift” value was 0.461 ± 0.56 °C. In the case of “UniProt Q96QB1-4_phosphosite_15 (phosphosite position: 15)”, the “phosphopeptide melting temperature shift” value is reported as 0.356 ± 0.71 °C. “UniProt Q96QU8-2_phosphosite_190 (phosphosite position: 190)” was tested, and the “phosphopeptide melting temperature shift” value was 0.912 °C. “UniProt Q96S38-2_phosphosite_411 (phosphosite position: 411)” was tested, and the “phosphopeptide melting temperature shift” value was -0.445 °C. With “UniProt Q96S38-2_phosphosite_415 (phosphosite position: 415)” the “phosphopeptide melting temperature shift” value was -0.445 °C. With “UniProt Q96S53-3_phosphosite_427 (phosphosite position: 427)” the “phosphopeptide melting temperature shift” value was 0.699 ± 0.29 °C. For “UniProt Q96S53-3_phosphosite_431 (phosphosite position: 431)”, the “phosphopeptide melting temperature shift” value was 0.699 ± 0.29 °C. “UniProt Q96S55-2_phosphosite_116 (phosphosite position: 116)” was tested, and the “phosphopeptide melting temperature shift” value was 2.05 °C. With “UniProt Q96SB4-4_phosphosite_35 (phosphosite position: 35)” the “phosphopeptide melting temperature shift” value was 2.02 ± 1 °C. With “UniProt Q96TA1-2_phosphosite_628 (phosphosite position: 628)” the “phosphopeptide melting temperature shift” value was 0.219 ± 0.41 °C. For “UniProt Q147X3-2_phosphosite_162 (phosphosite position: 162)”, the “phosphopeptide melting temperature shift” value was -0.0291 °C. “UniProt Q00613-2_phosphosite_303 (phosphosite position: 303)” was tested, and the “phosphopeptide melting temperature shift” value was 2.01 ± 1.1 °C. For “UniProt Q00613-2_phosphosite_307 (phosphosite position: 307)”, the “phosphopeptide melting temperature shift” value was 2.01 ± 1.1 °C. For “UniProt Q00613-2_phosphosite_314 (phosphosite position: 314)”, the “phosphopeptide melting temperature shift” value was 1.22 °C. “UniProt Q00613-2_phosphosite_363 (phosphosite position: 363)” was tested, and the “phosphopeptide melting temperature shift” value was 2.51 ± 0.18 °C. “UniProt Q641Q2-2_phosphosite_352 (phosphosite position: 352)” was tested, and the “phosphopeptide melting temperature shift” value was 2.27 °C. “UniProt Q641Q2-2_phosphosite_539 (phosphosite position: 539)” was tested, and the “phosphopeptide melting temperature shift” value was 0.375 °C. “UniProt Q641Q2-2_phosphosite_619 (phosphosite position: 619)” was tested, and the “phosphopeptide melting temperature shift” value was 0.468 °C. “UniProt Q641Q2-2_phosphosite_620 (phosphosite position: 620)” was tested, and the “phosphopeptide melting temperature shift” value was -0.191 ± 0.27 °C. With “UniProt Q641Q2-2_phosphosite_1158 (phosphosite position: 1158)” the “phosphopeptide melting temperature shift” value was -0.193 ± 0.56 °C. “UniProt Q641Q2-2_phosphosite_1159 (phosphosite position: 1159)” was tested, and the “phosphopeptide melting temperature shift” value was 0.664 °C. With “UniProt Q709C8-3_phosphosite_3598 (phosphosite position: 3598)” the “phosphopeptide melting temperature shift” value was 3.97 °C. In the case of “UniProt Q01484-5_phosphosite_10 (phosphosite position: 10)”, the “phosphopeptide melting temperature shift” value is reported as -0.163 °C. For “UniProt Q01484-5_phosphosite_825 (phosphosite position: 825)”, the “phosphopeptide melting temperature shift” value was 1.06 ± 0.37 °C. In the case of “UniProt Q01484-5_phosphosite_1729 (phosphosite position: 1729)”, the “phosphopeptide melting temperature shift” value is reported as 2.48 ± 0.7 °C. With “UniProt Q01484-5_phosphosite_1815 (phosphosite position: 1815)” the “phosphopeptide melting temperature shift” value was 0.0837 °C. For “UniProt Q01518-2_phosphosite_309 (phosphosite position: 309)”, the “phosphopeptide melting temperature shift” value was 0.00411 ± 0.49 °C. “UniProt Q01804-5_phosphosite_958 (phosphosite position: 958)” was tested, and the “phosphopeptide melting temperature shift” value was 1.46 °C. In the case of “UniProt Q01831-2_phosphosite_846 (phosphosite position: 846)”, the “phosphopeptide melting temperature shift” value is reported as 2.86 °C. “UniProt Q01831-2_phosphosite_847 (phosphosite position: 847)” was tested, and the “phosphopeptide melting temperature shift” value was 2.86 °C. With “UniProt Q02750_phosphosite_386 (phosphosite position: 386)” the “phosphopeptide melting temperature shift” value was 2.17 °C. In the case of “UniProt Q02880-2_phosphosite_1576 (phosphosite position: 1576)”, the “phosphopeptide melting temperature shift” value is reported as 0.905 ± 0.6 °C. In the case of “UniProt Q05209-2_phosphosite_457 (phosphosite position: 457)”, the “phosphopeptide melting temperature shift” value is reported as -0.359 ± 0.83 °C. With “UniProt Q05209-2_phosphosite_458 (phosphosite position: 458)” the “phosphopeptide melting temperature shift” value was 0.454 ± 0.56 °C.
